# Percent effect of library compounds

The chains behind the UniProt entries cited, without tags or fusion partners. Residues count along the entry.
UniProt Q8IDJ8, 1-583: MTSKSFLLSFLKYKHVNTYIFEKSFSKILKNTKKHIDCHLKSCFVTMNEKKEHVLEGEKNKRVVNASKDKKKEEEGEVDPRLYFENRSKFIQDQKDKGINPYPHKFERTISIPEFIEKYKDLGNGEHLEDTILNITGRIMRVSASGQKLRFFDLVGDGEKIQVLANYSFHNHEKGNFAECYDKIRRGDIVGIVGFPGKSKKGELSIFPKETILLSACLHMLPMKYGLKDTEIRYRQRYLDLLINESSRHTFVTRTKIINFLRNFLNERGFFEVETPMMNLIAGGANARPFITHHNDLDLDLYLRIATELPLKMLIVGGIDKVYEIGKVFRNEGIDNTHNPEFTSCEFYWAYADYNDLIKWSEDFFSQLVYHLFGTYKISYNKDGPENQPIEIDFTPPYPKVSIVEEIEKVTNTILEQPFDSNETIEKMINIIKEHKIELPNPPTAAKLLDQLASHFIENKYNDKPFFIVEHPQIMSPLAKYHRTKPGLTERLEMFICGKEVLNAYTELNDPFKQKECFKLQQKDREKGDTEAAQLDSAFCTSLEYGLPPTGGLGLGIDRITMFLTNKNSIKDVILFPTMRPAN
UniProt Q4DA54, 1-478: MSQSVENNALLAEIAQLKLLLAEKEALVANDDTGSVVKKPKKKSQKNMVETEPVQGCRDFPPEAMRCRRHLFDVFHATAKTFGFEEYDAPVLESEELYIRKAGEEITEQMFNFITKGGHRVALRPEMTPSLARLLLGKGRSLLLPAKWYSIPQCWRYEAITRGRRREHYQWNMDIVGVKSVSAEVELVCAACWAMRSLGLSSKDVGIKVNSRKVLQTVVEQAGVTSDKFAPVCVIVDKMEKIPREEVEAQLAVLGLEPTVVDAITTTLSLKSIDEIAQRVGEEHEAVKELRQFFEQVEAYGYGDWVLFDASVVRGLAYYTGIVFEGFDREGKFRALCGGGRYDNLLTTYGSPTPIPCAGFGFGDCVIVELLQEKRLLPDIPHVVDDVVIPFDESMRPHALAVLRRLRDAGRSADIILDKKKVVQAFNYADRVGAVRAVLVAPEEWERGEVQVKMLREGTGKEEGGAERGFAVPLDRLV
UniProt I6X8D2, whole entry: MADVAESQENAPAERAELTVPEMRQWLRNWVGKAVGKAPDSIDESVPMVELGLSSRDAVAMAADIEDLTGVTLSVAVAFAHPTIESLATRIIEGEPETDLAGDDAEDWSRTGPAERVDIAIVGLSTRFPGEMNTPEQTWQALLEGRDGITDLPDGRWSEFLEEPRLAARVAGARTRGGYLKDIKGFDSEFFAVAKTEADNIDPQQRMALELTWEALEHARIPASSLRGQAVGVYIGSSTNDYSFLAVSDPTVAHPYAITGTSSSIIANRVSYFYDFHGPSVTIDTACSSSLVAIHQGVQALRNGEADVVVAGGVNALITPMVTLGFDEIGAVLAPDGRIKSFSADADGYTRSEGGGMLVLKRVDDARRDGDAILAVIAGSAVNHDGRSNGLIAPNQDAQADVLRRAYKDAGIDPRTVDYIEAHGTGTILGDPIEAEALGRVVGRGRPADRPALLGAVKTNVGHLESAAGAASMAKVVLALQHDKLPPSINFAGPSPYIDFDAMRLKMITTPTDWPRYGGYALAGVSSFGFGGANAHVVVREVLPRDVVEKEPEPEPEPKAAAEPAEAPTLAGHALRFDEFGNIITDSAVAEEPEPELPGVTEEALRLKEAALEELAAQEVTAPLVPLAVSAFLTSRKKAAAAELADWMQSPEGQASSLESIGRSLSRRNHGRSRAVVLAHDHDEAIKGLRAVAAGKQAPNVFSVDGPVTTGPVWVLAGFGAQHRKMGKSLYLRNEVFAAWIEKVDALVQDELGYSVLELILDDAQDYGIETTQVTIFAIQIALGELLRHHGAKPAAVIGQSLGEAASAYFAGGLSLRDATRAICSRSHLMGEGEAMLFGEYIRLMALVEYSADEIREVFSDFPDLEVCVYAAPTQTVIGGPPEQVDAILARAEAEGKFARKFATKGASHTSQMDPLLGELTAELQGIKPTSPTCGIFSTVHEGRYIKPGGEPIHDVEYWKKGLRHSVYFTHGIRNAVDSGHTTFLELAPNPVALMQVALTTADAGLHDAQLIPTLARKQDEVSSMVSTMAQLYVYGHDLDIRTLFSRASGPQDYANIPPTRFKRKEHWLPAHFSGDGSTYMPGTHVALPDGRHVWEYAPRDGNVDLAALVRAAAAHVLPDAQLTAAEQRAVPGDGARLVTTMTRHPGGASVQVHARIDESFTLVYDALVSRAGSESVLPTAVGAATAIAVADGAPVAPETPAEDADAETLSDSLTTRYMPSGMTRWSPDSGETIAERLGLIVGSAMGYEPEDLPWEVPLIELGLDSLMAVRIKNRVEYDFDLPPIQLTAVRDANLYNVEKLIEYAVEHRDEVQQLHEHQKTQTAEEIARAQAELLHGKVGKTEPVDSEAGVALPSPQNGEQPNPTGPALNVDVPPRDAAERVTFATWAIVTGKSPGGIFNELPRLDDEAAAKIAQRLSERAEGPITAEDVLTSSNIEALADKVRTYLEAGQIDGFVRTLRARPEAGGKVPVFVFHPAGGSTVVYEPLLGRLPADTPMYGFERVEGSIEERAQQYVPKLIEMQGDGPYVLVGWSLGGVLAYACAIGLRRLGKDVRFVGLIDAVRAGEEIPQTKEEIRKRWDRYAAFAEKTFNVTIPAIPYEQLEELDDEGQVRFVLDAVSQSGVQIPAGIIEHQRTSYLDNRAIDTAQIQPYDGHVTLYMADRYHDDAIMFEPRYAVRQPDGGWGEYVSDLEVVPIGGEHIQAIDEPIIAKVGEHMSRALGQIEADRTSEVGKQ

A: 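Lysine-tRNA ligase, Plasmodium falciparum 3D7 (UniProt Q8IDJ8). Enzyme assay of the cytosolic lysyl-tRNA synthetase in 384-well plates, read by luminescence. Concentration: 30 µM. Direction is inferred from only a few compounds that gave an IC50; most scored high, so higher reads as stronger inhibition. Size under these conditions: about 69,000 compounds, about 49 of them at 50% or above in at least one test.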
B: 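Histidine-tRNA ligase, Trypanosoma cruzi CL Brener (UniProt Q4DA54). Enzyme assay of histidyl-tRNA synthetase; the read-out is not stated. Concentration: 30 µM. Direction is inferred from retests: higher values go with stronger inhibition. About 69,000 compounds were tested under these conditions; 0.045% (about 31) showed 50% or more at least once.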
C: 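Cell assay of Leishmania donovani living inside macrophages; the read-out is not stated. Tested at 30 µM. The record gives no direction; compounds that gave an IC50 in retests scored well above the rest, so higher reads as stronger inhibition. Size under these conditions: about 69,000 compounds, about 1,000 of them at 50% or above in at least one test.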
D: 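Polyketide synthase Pks13, Mycobacterium tuberculosis (UniProt I6X8D2). Enzyme assay of the thioesterase domain of polyketide synthase 13; the read-out is not stated. Compounds at 30 µM. The record gives no direction; the compounds picked for IC50 retests had high values, so higher reads as stronger inhibition. Of about 67,000 compounds tested this way, about 300 (0.46%) reached 50% or more in at least one test.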

Values are the deposited “Percent Effect”, in %. How 0% and 100% were set is not recorded. Most values in the screen are low, and negative values occur. The compounds are a random part of those screened. Two or more numbers in one place are separate tests of the same structure; such repeats can differ widely. A dash means the value is not listed here; it may have been measured.

compound	A	B	C	D
CCC(CC)C(O)CNC(=O)Nc1cccc(-c2nccn2C)c1 (stereo unspecified)	2.433	5.291	20.96	-23.88
COc1ccc(OC2CCN(C(=O)CCc3n[nH]c(C)n3)CC2)cc1	7.759	5.6	39.68	-3.206
Cn1cc(C(=O)N2CC[C@@H]3[C@@H]2CCN3c2ccccn2)cn1	5.714	-5.882	-	-30.31
COCCC(=O)N1CC2(CCN(Cc3cccc(Cl)c3)CC2)C1	1.299	8.197	-	-29.06
Cc1ccc(CNC(=O)c2c[nH]nc2NC(=O)C2CCC2)cc1	9.064	10.34	23.1	-
CS(=O)(=O)N1C[C@H]2CCC[C@@]2(COCC2CCOCC2)C1	9.806	4.902	-	-21.34
Cc1cc(NC(=O)CN2CCCCC2Cn2nc(C)nc2C)on1 (stereo unspecified)	0.4895	-0.578	18.85	-9.476
CCSc1ccc(NC(=O)N2CCCC2c2ccncc2)cn1 (stereo unspecified)	6.059	-10.92	-0.4893	2.821
CC(c1cc(O)nc(NC2CCCC2)n1)n1ncc2ccccc2c1=O (stereo unspecified)	0.5125	8.046	-6.186	-
Cc1cccc(CN2C(=O)CCC23CCN(C(=O)c2ccco2)CC3)c1	1.265	3.883	22.57	-17.21
Cc1nc(CN(Cc2cccs2)C2CCS(=O)(=O)C2)oc1C (stereo unspecified)	-1.46	1.515	8.765	-11.24
Cc1nn(C)cc1CN1CCC(c2ncc(Cl)cc2S(C)(=O)=O)CC1	1.359	6.061	-2.424	-7.78
Cl.O=C(NC[C@@]1(COc2cnccn2)C[C@@H](O)[C@@H](O)C1)C1CCCC1	-	-	-14.17	-
CN(C)c1nccnc1C1CCN(C2CCCCC2O)CC1 (stereo unspecified)	0.9155	3.101	21.99	15.19
CCN(CC)C1CCN(C(=O)c2cc(CC(C)C)nn2CC)C1 (stereo unspecified)	0.2979	1.087	-9.102	4.875
O=C(NC[C@H]1CCCC[C@H]1O)c1cccc2[nH]c(-c3ccco3)nc12	6.555	7.955	-0.95	7.582
COCCc1noc(-c2ccc(-c3ccc(N)nc3)nc2)n1	3.64	12.71	18.3	-0.1989
CCc1nc(C2CCCN2Cc2nnc(Cc3ccccc3)o2)no1 (stereo unspecified)	2.057	2.642	9.991	-13.21
CN(C)CC1CN(c2ncnc3[nH]ccc23)CCO1 (stereo unspecified)	3.508	0.3759	1.306	-18.98
OCCN1CCc2[nH]nc(C(c3ccccc3)c3ccccc3)c2C1	3.95	4.972	17.66	-10.98
COc1cc(C)ccc1S(=O)(=O)N[C@H]1CN(C(C)=O)C[C@@H]1C1CC1	3.066	-0.4292	19.12	-0.1208
Cc1nn(C)c(C)c1-c1ccnc(N(C)Cc2noc(C(C)C)n2)n1	-3.506	-1.657	46.51	-22.13
CN1CCCN(S(C)(=O)=O)c2cc(F)ccc21	1.13	-2.646	3.526	9.243
Cl.Cn1ccnc1N1CCN(C(=O)Cc2ccc(F)cc2)CC1	-	-	32.15	-
CCN1CCC12CCN(C(=O)c1ccsc1)C2.O=C(O)C(F)(F)F (stereo unspecified)	-	-	2.853	-
CC(=O)Nc1ccc(CNc2cccc(CS(C)(=O)=O)c2)cc1	4.967	5	14.38	-4.056
Cc1n[nH]c2ncc(CNC3CCN(Cc4ccccn4)CC3)cc12.Cl	-	-	23.69	-
O=C(O)C(F)(F)F.O=C(O)C(F)(F)F.c1cnc(N2CCC3(CCN(CC4CCOCC4)CC3)C2)nc1	-	-	28.68	-
Cc1nn(C)c(C)c1C1CCCN1CC(=O)NCc1ccco1 (stereo unspecified)	0.3317	3.198	8.77	0.9121
Cc1cc(C(=O)N2C[C@H](CO)C[C@H](CN3CCOCC3)C2)nc(C)n1	5.587	1.786	-16.9	-9.514
Cc1ccsc1C(=O)N1CCC2(CC(N(C)c3ccncn3)C2)C1 (stereo unspecified)	4.796	2.198	-7.611 & -3.208	-0.1419
Cc1cccc(C(=O)N2C[C@@H](C)[C@@]3(CCN(c4ccsc4)C3=O)C2)n1.O=C(O)C(F)(F)F	-	-	-14.03	-
CN(CC1CCOC1)S(=O)(=O)c1cccc(C(=O)N2CCCCCC2)c1 (stereo unspecified)	2.608	2.97	33.26	-4.853
COc1cc(Cl)c(NC(=O)c2cc3c([nH]c2=O)CCCC3=O)cc1OC	3.69	8.287	14.8	-28.42
Cc1ncsc1CCN(C)C(=O)c1ncccc1O	5.472	7.821	16.86	-34.37
COc1ccc(CCN)cc1-c1ccc(O)cc1	0.04439	9.392	-38.75	-608.9
Cc1ccc(C(=O)NC2CCCN(S(C)(=O)=O)C2)c(=O)[nH]1 (stereo unspecified)	1.132	9.045	4.219	7.683
COc1c(C2CCCN2Cc2nnc(C3CC3)n2C)c(C)nn1C (stereo unspecified)	-0.3666	3.191	18.39	-7.516
Cc1cnn(C2CCCN(C(=O)c3ccnc(-n4ccnc4)c3)C2)c1 (stereo unspecified)	6.194	4.135	13.1	-11.65
CC(C)Oc1cccc(CNC(Cc2ccsc2)c2nccs2)c1.Cl (stereo unspecified)	-	-	-38.1	-
CN1CCN(C(=O)NCCNc2ncccn2)Cc2ccccc21	-0.3281	0.5435	27.81	-39.28
COC(=O)CSc1nnc(CCNC(=O)OC(C)(C)C)o1	-0.407	3.518	11.94	-1.344
N#Cc1cn(C2CC2)c(=O)n(CC(O)c2ccc(Cl)cc2)c1=O (stereo unspecified)	-1.081	2.353	-12.65	-14.92
CC(=O)N1CCC(C(=O)NCCN2CCCC(C)C2)CC1 (stereo unspecified)	3.201	2.956	17.96	-34.57
CS(=O)(=O)c1cncnc1C1CCCN(C(=O)Nc2ccc(F)cc2)C1 (stereo unspecified)	-0.1992	2.273	40.92	3.502
Cc1nc(-c2ccccc2F)sc1C(=O)N1CCC(=O)CC1	0.7812	6.061	27.73	-43.68
CCc1noc(CN(CC)Cc2cc3ccc(C)cc3[nH]c2=O)n1	1.821	2.4	-4.887	-40.31
O=C(O)C(F)(F)F.O=C(O)C(F)(F)F.[H][C@@]12CCCO[C@]1([H])[C@H](N(C)Cc1cccnc1)CN2C(=O)c1ccno1	-	-	75.56	-
COCCNC(=O)[C@H]1CC[C@@H]2[C@@H](CCN2S(C)(=O)=O)O1	1.373	-3.922	-	-0.1715
O=c1c2ccccc2cnn1Cc1cncn1C1CC1	3.213	9.453	9.177	-23.81
O=C(O)C(c1cccc2c1OCC2)N1CCC(N2CCSCC2)CC1 (stereo unspecified)	5.662	2.041	11.31	-15.54
Cc1csc(CNC(=O)NCC2(c3ccc4c(c3)OCO4)CC2)n1	5.217	0.9901	22	-1.866
CCN(Cc1ccc2c(c1)OCCO2)C(=O)NC(C)Cn1ccnc1 (stereo unspecified)	5.878	2.29	-4.294	-27.05
O=C(O)C(F)(F)F.O=C(O)C(F)(F)F.O=C(c1ccncc1)N1CCC2(CC1)CCN(Cc1ccccn1)C2=O	-	-	30.2	-
Fc1cccc(N2CCCC3(C2)CN(c2ncccn2)CCO3)c1.O=C(O)C(F)(F)F.O=C(O)C(F)(F)F (stereo unspecified)	-	-	0.139	-
COc1ccc([C@@H]2CN(Cc3cccnc3N)C[C@H]2N(C)C)cc1	3.539	1.493	46.47	-10.98
CN(C)C(=O)CN1C[C@@H]2CC[C@H](C1)N(Cc1c(Cl)cncc1Cl)C2	4.191	1.961	-	2.091

The first 7 entries again:

{"compound": "CCC(CC)C(O)CNC(=O)Nc1cccc(-c2nccn2C)c1", "stereo": "stereo unspecified", "A": 2.433, "B": 5.291, "C": 20.96, "D": -23.88}
{"compound": "COc1ccc(OC2CCN(C(=O)CCc3n[nH]c(C)n3)CC2)cc1", "A": 7.759, "B": 5.6, "C": 39.68, "D": -3.206}
{"compound": "Cn1cc(C(=O)N2CC[C@@H]3[C@@H]2CCN3c2ccccn2)cn1", "A": 5.714, "B": -5.882, "D": -30.31}
{"compound": "COCCC(=O)N1CC2(CCN(Cc3cccc(Cl)c3)CC2)C1", "A": 1.299, "B": 8.197, "D": -29.06}
{"compound": "Cc1ccc(CNC(=O)c2c[nH]nc2NC(=O)C2CCC2)cc1", "A": 9.064, "B": 10.34, "C": 23.1}
{"compound": "CS(=O)(=O)N1C[C@H]2CCC[C@@]2(COCC2CCOCC2)C1", "A": 9.806, "B": 4.902, "D": -21.34}
{"compound": "Cc1cc(NC(=O)CN2CCCCC2Cn2nc(C)nc2C)on1", "stereo": "stereo unspecified", "A": 0.4895, "B": -0.578, "C": 18.85, "D": -9.476}

Data taken from ChEMBL document CHEMBL3988442, “University of Dundee, Small-Polar-MMV Screening Library” (2021).